Measurements taken from PubChem BioAssay AID651640 (Broad Institute, 2012).
Several values for one entry are separate records, joined by “and”; a condition that tells them apart may be missing. Equal entries are not always repeated. About 6,000 (1.7%) of roughly 350,000 compounds were called active. The shares of active, inactive and inconclusive entries below differ from those in the screen. No stated cut-off is given here; in the data, active means CPE inhibition above about 20% (passing the limit was not always enough); inconclusive means no clear call, values can overlap the other calls; tested in BHK-21 cells.

Assay: protection of cells from dengue 2 killing – plate reader, single concentration, primary screen (AID 651640);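 further: 0% = median of neutral control wells and 100% = median of positive control wells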
Settings: DENV2-infected cells, cytopathic effect rescue, at 9.99 µM, hits give high values

| Structure (SMILES) | CPE inhibition |
| --- | --- |
| COc1ccc(-n2nc(C(=O)NCC(=O)N3CCN(c4ccccc4OC)CC3)c3ccccc3c2=O)c(OC)c1 | inconclusive: 31% |
| Cc1cc(C)c(C#N)c(Oc2ccccc2Br)n1 | inconclusive: 33.2% |
| COc1ccc2ncccc2c1Cc1c(OC)ccc2ncccc12 | inconclusive: 41.7% |
| COc1ccc(CN(C)CC(=O)Nc2cccc3ccccc23)cc1F | inconclusive: 33.9% |
| O=C(CCNC(=O)N1CC(=O)Nc2ccccc21)Nc1cccc(Cl)c1 | inconclusive: 21.3% |
| CCN1CCCC1CNC(=O)c1ccc(N2CCOCC2)c(NS(=O)(=O)c2ccc(OC)cc2)c1 (stereo not given) | inconclusive: 20.4% |
| COc1ccc(C(=O)CSc2nnc(NC(=O)C3CC(=O)N(c4ccccc4)C3)s2)cc1 (stereo not given) | inconclusive: 24.7% |
| CC1(Cc2cccc(F)c2)C(=O)Nc2ccc(OC(F)(F)F)cc21 (stereo not given) | inconclusive: 34.7% |
| CC(C)CC#Cc1ccc2c(c1)O[C@H](CN(C)C(=O)Cc1cccnc1)[C@@H](C)CN([C@H](C)CO)S2(=O)=O | inactive: 0.954% |
| C[C@@H]1CN([C@H](C)CO)C(=O)c2cc(C#CCN(C)C)cnc2O[C@@H]1CN(C)C(=O)Nc1cccc(F)c1 | inactive: -6.15% |
| CCC/C(=C1/c2ccccc2C(=O)N1c1ccccc1)c1cnc(OC)nc1 | inconclusive: 26.7% |
| CN1c2ccc(-c3ccccc3)cc2[C@@H]2[C@@H](CCN2C(=O)CN2CCOCC2)[C@H]1CO | inactive: -13% |
| O=C(O)c1cccc(N2C(=O)c3cccc(Oc4ccc(Cl)cc4)c3C2=O)c1 | inactive: -4.17% |
| O=C(Nc1ccon1)Nc1ccc(Cl)cc1Cl | inconclusive: 27.4% |
| COC(=O)CCN(Cc1cccc(OC)c1OC)S(=O)(=O)c1ccccc1Br | inconclusive: 70% |
| C[C@@H]1CN([C@H](C)CO)C(=O)c2cc(NC(=O)Nc3ccccc3)ccc2O[C@H]1CN(C)Cc1ccncc1 | inactive: 1.71% |
| C[C@@H]1CN([C@H](C)CO)C(=O)c2cc(NS(=O)(=O)c3cn(C)cn3)ccc2O[C@@H](C)CCCCO[C@@H]1CN(C)C(=O)c1ccncc1 | inactive: -9.44% |
| CC(=O)N(C)C[C@@H]1Oc2cc(C#Cc3cccc(F)c3)ccc2S(=O)(=O)N([C@@H](C)CO)C[C@H]1C | inactive: 9.18% |
| O=C1C(Cc2ccccc2)Nc2ncnc(N3CCOCC3)c2N1Cc1ccc(Cl)cc1 (stereo not given) | inactive: -3.71% and inactive: -12% |
| CCN1C(=O)[C@H]2[C@@H](c3ccc(C(F)(F)F)cc3)N[C@]3(CCCN(CC4CCCCC4)C3=O)[C@H]2C1=O | inconclusive: 64.2% |

No new results follow: entries from further up.

| Structure (SMILES) | CPE inhibition |
| --- | --- |
| COc1ccc(C(=O)CSc2nnc(NC(=O)C3CC(=O)N(c4ccccc4)C3)s2)cc1 (stereo not given) | inconclusive: 24.7% |
| CC1(Cc2cccc(F)c2)C(=O)Nc2ccc(OC(F)(F)F)cc21 (stereo not given) | inconclusive: 34.7% |
